PubChem BioAssay AID2585 (National Center for Advancing Translational Sciences (NCATS), 2010)
Inconclusive means that the source gave no clear call. Such entries were picked first, then a sample of the others. Where the call is inconclusive, the potency comes from a doubtful curve fit. The source made the active and inactive calls. Calls follow the shape of the dose curve; as a rule, active = well fitted inhibition curve with a large enough effect; inconclusive = small, poorly fitted or top-dose-only effect; inactive = no such curve, though single readings can be large or run the other way. Numbered stars: 1 amine (or outer) side, 2 acyl side, 3 side chain; on linkers, the order of the positions; unused ones are H or OH. Bridge positions count the residues as written; N and C are the ends. Square brackets hold non-standard residues; d marks the D form. Peptide text beside a SMILES is read from it. I, II: the chains in the order shown. Actinocin(9to1) = Cc1c2oc3c(C)ccc(C(=O)[*:1])c3nc-2c(C(=O)[*:2])c(N)c1=O; NMeV = CN[C@H](C(=O)O)C(C)C; Sar = CNCC(=O)O

Protein sequences, listed by entry. Tags and fused reporters are not part of them. Lines headed by an entry give the natural chain unless they say otherwise; changes in a name come on top.
UniProt P54132: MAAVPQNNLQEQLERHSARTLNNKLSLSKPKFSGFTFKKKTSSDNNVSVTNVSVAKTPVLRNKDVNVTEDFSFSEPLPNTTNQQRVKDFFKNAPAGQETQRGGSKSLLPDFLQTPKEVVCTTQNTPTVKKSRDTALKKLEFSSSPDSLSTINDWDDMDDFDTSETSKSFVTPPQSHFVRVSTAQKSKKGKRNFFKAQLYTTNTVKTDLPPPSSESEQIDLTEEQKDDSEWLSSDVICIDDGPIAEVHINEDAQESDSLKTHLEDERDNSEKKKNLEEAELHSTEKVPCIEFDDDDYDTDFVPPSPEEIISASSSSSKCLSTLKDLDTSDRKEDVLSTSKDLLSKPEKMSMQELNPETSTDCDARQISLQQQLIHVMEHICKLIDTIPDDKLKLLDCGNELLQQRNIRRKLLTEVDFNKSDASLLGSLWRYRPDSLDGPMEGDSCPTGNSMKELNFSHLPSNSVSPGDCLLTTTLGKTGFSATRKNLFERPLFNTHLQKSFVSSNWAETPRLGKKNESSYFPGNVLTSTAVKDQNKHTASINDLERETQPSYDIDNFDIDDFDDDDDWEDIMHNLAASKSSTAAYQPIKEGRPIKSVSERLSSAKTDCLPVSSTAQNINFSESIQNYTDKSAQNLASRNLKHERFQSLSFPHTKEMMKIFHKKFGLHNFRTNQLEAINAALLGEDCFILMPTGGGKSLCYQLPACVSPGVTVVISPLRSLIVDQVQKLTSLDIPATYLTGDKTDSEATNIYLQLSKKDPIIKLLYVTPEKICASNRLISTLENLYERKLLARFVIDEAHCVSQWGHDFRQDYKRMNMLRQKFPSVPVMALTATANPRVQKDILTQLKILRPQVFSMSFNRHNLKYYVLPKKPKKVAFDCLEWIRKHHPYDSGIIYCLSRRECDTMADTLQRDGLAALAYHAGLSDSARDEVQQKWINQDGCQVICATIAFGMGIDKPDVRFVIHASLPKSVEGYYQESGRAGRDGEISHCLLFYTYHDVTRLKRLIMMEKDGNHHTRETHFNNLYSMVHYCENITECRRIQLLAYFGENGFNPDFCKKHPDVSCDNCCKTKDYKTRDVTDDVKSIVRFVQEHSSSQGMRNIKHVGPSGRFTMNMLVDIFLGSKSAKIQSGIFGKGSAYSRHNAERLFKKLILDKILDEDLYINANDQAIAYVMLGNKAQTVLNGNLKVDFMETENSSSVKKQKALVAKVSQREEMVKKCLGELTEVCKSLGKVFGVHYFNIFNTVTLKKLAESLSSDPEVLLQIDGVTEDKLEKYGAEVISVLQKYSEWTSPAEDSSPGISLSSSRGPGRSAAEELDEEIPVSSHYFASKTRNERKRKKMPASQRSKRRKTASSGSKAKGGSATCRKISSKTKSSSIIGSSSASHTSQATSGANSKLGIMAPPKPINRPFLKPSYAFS

biological target: RecQ-like DNA helicase BLM (Homo sapiens) (UniProt P54132); test: qHTS Confirmation Assay for Inhibitors of Bloom's syndrome helicase (BLM); settings: BLM DNA unwinding, fluorescence quenching, biochemical; also: nearly all actives have a fitted effect of over 45% in size
From the text: Survival of cells and the faithful propagation of the genome depend on elaborate mechanisms of detecting and repairing DNA damage. Treatment of advanced cancer relies on radiation therapy or chemotherapy, which kill cancer cells by causing extensive DNA damage. It is often found, that cancer cells develop resistance to therapy through enhanced activity of DNA repair functions; this has led to an increased interest in developing drugs that interfere with DNA repair, which could sensitize cancer cells to conventional therapy. This validation qHTS assay pertains to human BLM, which is important in resolving abnormal DNA structures formed during replication or homologous recombination. Shutting down the expression of BLM leads to chromosomal instability and higher radiation sensitivity in cultured cells. The validation assay was a fluorescence quenching based kinetic qHTS for BLM Helicase DNA unwinding. The activity was measured as ATP-dependent separation of a 20-bp DNA duplex extended by 30-nt single-stranded tails (forked duplex). The forked DNA substrate was tagged with rhodamine fluorophore (carboxytetramethyl rhodamine, TAMRA) and BHQ-2 (Black Hole Quencher 2) dark quencher. Strand separation results in an increase in the fluorescence of TAMRA (excitation 525 nm, emission 598 nm). This substrate construct operates in a red-shifted region where very few compound library members have been noted to fluoresce (PubChem AIDs 593 and 594). An additional feature of the assay is the inclusion of 2.5 ug/ml poly (dIdC), to reduce interference by compounds such as DNA intercalators, a major source of false inhibitors. Assay Providers: Ian Hickson, University of Oxford Opher Gileadi, Structural Genomics Consortium, University of Oxford Screening Center PI: Austin, C.P. Screening Center: NIH Chemical Genomics Center [NCGC]
Three uL of reaction buffer (25 mM Tris-HCl (pH 8.0), 5 mM NaCl, 2 mM MgCl2, 1mM DTT, 0.01% Tween- 20, and 2.5 ug/ml poly(dI-dC), including enzyme (50 nM BLM), were dispensed into a 1536-well Greiner black assay plate via solenoid-valve based nanoliter dispensers. Compounds (23 nl each in columns 5-48) and control (23 nl each in column 2 as dose-response) were transferred via a Kalypsys pintool equipped with a 1536-pin array. The plates were incubated for 15 min at room temperature, and then 1 ul of substrates (200 nM DNA and 2 mM ATP, final concentrations) was added to start the reaction. The plate was transferred into a ViewLux high-throughput CCD imager where the reaction progress was measured in a discontinuous kinetic mode (two reads spaced 2 hours apart, with intermediate room temperature incubation of the covered assay plate) by using standard red-fluorescence optics (excitation filter 525 nm, emission filter 598 nm). Enzyme-free and vehicle (DMSO) controls were included for signal normalization.
% is scaled to controls: 0 for no effect and ±100 for the full control effect; potency is read from the fitted curve at half-maximal effect.

SMILES	Potency	max response, negative = inhibition
O=C(CSc1nc(-c2ccccc2)nc2c1Cc1ccccc1O2)Nc1ccc(C(=O)O)cc1	active: 12.9 µM	
COc1ccc(Br)cc1CNc1ccc(O)cc1		inactive: -2.85%
CC1(C)C(=O)NC2=C1C(=O)C(=O)c1ccccc12	active: 5.13 µM	
O=c1oc(-c2ccccc2)nc2sc3c(c12)CCC3	inconclusive: 18.2 µM [inhibitor, partial curve]	
O=C(COC(=O)c1cncc(Br)c1)NCc1ccco1	active: 18.2 µM	
O=C(COC(=O)C1(c2ccc(F)cc2)CCCC1)NCc1ccco1		inactive: -10.8%
Cc1ccc(-c2nc(NC(=O)CSc3cc(C)c4ccccc4n3)ns2)cc1	active: 18.2 µM	
O=c1[nH][nH]c2c(N=Cc3ccccc3O)ccc(F)c12	inconclusive: 14.5 µM [inhibitor, partial curve]	
COC(=O)c1cc(=O)c(O)c2c(O)c(O)ccc2c1	inconclusive: 8.13 µM [inhibitor, partial curve]	
O=C1C=C(NCCN2CCOCC2)C(=O)c2cnccc21	inconclusive: 25.7 µM [inhibitor, partial curve, poor fit]	
COc1cccc2c1C(=O)c1c(O)c3c(c(O)c1C2=O)C[C@](O)(C(C)=O)C[C@H]3O[C@@H]1C[C@H](N)[C@H](O)[C@H](C)O1	active: 18.2 µM	
COc1cc(NC(=O)c2ccccc2)c(OC)cc1NC(=O)Cc1cccs1	active: 16.2 µM	
CNC(=O)COC(=O)c1cc(-c2ccco2)nc2ccccc12	inconclusive: 20.4 µM [inhibitor, partial curve]	
O=C(Cn1c(=O)n(Cc2ccco2)c(=O)c2c3c(sc21)CCCCC3)Nc1ccccc1	inconclusive: 20.4 µM [inhibitor, partial curve]	
Fc1cc(F)c2nc(Nc3nc4cc5c(cc4s3)OCO5)sc2c1	inconclusive: 3.24 µM [inhibitor, full curve, poor fit]	
Oc1ccc(Nc2nc(NCC3CCCO3)c3ccccc3n2)cc1 (stereo not given)	active: 14.5 µM	
O=C(N/N=C/c1cccc(F)c1)c1cc(-c2ccco2)nc2ccccc12	active: 5.76 µM	
Nc1c(C(=O)NC2CC2)sc2nc3c(c(-c4ccco4)c12)CC/C3=C/c1ccco1	inconclusive: 6.46 µM [inhibitor, partial curve]	
CC(=O)Nc1sc2c(c1-c1nc3ccccc3s1)CCN(C(C)C)C2		inactive: 459%
CCc1ccc(NC(=O)CSc2nc(NS(=O)(=O)c3ccccc3)cc(=O)[nH]2)cc1		inactive: 3.47%

A section of the results above:
SMILES	Potency	max response, negative = inhibition
O=C(COC(=O)C1(c2ccc(F)cc2)CCCC1)NCc1ccco1		inactive: -10.8%
Cc1ccc(-c2nc(NC(=O)CSc3cc(C)c4ccccc4n3)ns2)cc1	active: 18.2 µM	
O=c1[nH][nH]c2c(N=Cc3ccccc3O)ccc(F)c12	inconclusive: 14.5 µM [inhibitor, partial curve]	
COC(=O)c1cc(=O)c(O)c2c(O)c(O)ccc2c1	inconclusive: 8.13 µM [inhibitor, partial curve]	
O=C1C=C(NCCN2CCOCC2)C(=O)c2cnccc21	inconclusive: 25.7 µM [inhibitor, partial curve, poor fit]	
COc1cccc2c1C(=O)c1c(O)c3c(c(O)c1C2=O)C[C@](O)(C(C)=O)C[C@H]3O[C@@H]1C[C@H](N)[C@H](O)[C@H](C)O1	active: 18.2 µM	
COc1cc(NC(=O)c2ccccc2)c(OC)cc1NC(=O)Cc1cccs1	active: 16.2 µM	
CNC(=O)COC(=O)c1cc(-c2ccco2)nc2ccccc12	inconclusive: 20.4 µM [inhibitor, partial curve]	
O=C(Cn1c(=O)n(Cc2ccco2)c(=O)c2c3c(sc21)CCCCC3)Nc1ccccc1	inconclusive: 20.4 µM [inhibitor, partial curve]	
Fc1cc(F)c2nc(Nc3nc4cc5c(cc4s3)OCO5)sc2c1	inconclusive: 3.24 µM [inhibitor, full curve, poor fit]	
Oc1ccc(Nc2nc(NCC3CCCO3)c3ccccc3n2)cc1 (stereo not given)	active: 14.5 µM	

Continued:

SMILES	Potency	max response, negative = inhibition
COc1cccc(C2/C(=C(\O)c3ccc4c(c3)OCCO4)C(=O)C(=O)N2CCN(C)C)c1 (stereo not given)		inactive: -7.08%
O=C(Nc1ccccc1)Oc1ccc[nH]c1=O		inactive: -1.64%
CN(C)c1cc(Cl)c2nonc2c1N	inconclusive: 28.9 µM [inhibitor, partial curve]	
Cc1cc(=O)[nH]c2c(N=Nc3ccc(O)cc3)c(N)nn12	inconclusive: 32.4 µM [inhibitor, single point]	
O=C(CSc1ccc(-c2ccco2)nn1)c1ccccc1		inactive: -6.09%
CCOc1cc(/C=N/NC(=O)c2ccc(-c3csc(Nc4ccc(C)cc4)n3)cc2)ccc1OCC(=O)O	active: 32.4 µM	
CC(C)N(C(=O)Nc1ccc2nsnc2c1)C(C)C	inconclusive: 7.25 µM [inhibitor, partial curve]	
N#C/C(=C\c1ccc(N2CCOCC2)o1)c1nc2ccccc2[nH]1	inconclusive: 16.2 µM [inhibitor, partial curve]	
O=C(NC1CC1)c1cc(-c2ccco2)nc2ccccc12	active: 20.4 µM	
O=C(/C=C/c1ccccc1Cl)Nc1ccc2c(c1)C(=O)NC2=O	inconclusive: 6.46 µM [inhibitor, partial curve, poor fit]	
CCOC(=O)C1CCN(c2nc3ccccc3n2CC(=O)c2ccccc2)CC1		inactive: -1.7%
CSc1nc(NCCOCCO)c2sc3nc(-c4ccco4)c4c(c3c2n1)CCC4	inconclusive: 18.2 µM [inhibitor, partial curve, poor fit]	
CCOc1ccc(CCNC(=O)c2nc(-c3cccc(F)c3)n3c2CCCCC3)cc1OCC		inactive: -7.47%
CN(C)[C@H]1C(=O)C(C(=O)NCN2CCCC2)=C(O)[C@]2(O)C(=O)C3=C(O)c4c(O)cccc4[C@](C)(O)[C@H]3C[C@H]12	active: 20.4 µM	
CC(=O)[C@]1(O)Cc2c(O)c3c(c(O)c2[C@@H](O[C@H]2C[C@H](N)[C@H](O)[C@H](C)O2)C1)C(=O)c1ccccc1C3=O		inactive: -71.9%
CCn1c(SCC(N)=O)nc2sc3c(c2c1=O)CCN(C)C3		inactive: 10.1%
Cc1c2oc3c(C)ccc(C(=O)N[C@@H]4C(=O)N[C@H](C(C)C)C(=O)N5CCC[C@H]5C(=O)N(C)CC(=O)N(C)[C@@H](C(C)C)C(=O)O[C@@H]4C)c3nc-2c(C(=O)N[C@@H]2C(=O)N[C@H](C(C)C)C(=O)N3CCC[C@H]3C(=O)N(C)CC(=O)N(C)[C@@H](C(C)C)C(=O)O[C@@H]2C)c(N)c1=O (I: T[dV]P[Sar][NMeV] / II: T[dV]P[Sar][NMeV]; ester I:1-I:C, II:1-II:C; linker I:N-II:N via Actinocin(9to1))	inconclusive: 18.2 µM [inhibitor, partial curve]	
Cc1nc2ccc3nc(NC(=O)c4ccc5c(c4)OCCO5)sc3c2s1	inconclusive: 6.81 µM [inhibitor, full curve]	
Cc1cccc(N2CCC(N3CCN(C4CCCCC4)C(CCO)C3)CC2)c1C (stereo not given)		inactive: 6.96%
CC(C)CN(C(=O)COC(=O)c1cc2c(s1)CCC2)C1CCS(=O)(=O)C1 (stereo not given)	inconclusive: 14.5 µM [inhibitor, partial curve]	
